The source of these data is patent publication US20230080252A1, “ANTICANCER ADJUVANT AND PHARMACEUTICAL COMPOSITION FOR TREATING ANTICANCER-AGENT-RESISTANT CANCER, AND KIT COMPRISING SAME” (DONG-A UNIVERSITY RESEARCH FOUNDATION FOR INDUSTRY-ACADEMY …, priority 2020, published 2023).

The exact form of at least one protein or probe is not confirmed. For part of these data: No signal at the amounts used counts as a negative. Protein sequences can lack the tags named with them. For part of these data: Results from cells or extracts need not show a direct contact.

Data set [1] deals with T1, Tristetraprolin (TTP, ZFP36) (UniProt P26651).
T1 sequence (looked up, limits assumed): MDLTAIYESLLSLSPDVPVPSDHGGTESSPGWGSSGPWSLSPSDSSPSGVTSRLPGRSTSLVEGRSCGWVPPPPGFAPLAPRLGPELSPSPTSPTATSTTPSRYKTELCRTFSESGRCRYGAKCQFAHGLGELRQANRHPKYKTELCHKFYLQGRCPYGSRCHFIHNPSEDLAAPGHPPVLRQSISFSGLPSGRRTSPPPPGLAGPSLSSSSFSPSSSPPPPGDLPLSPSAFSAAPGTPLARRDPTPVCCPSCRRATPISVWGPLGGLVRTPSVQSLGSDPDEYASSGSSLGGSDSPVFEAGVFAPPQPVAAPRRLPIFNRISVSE
The data set can be described thus: activity in cells. The note with it: protein in cells.

The target in data set [2] is T1, Tristetraprolin (TTP, ZFP36). Kind of data set: binding assay. The conditions noted are these: RNA immunoprecipitation + RT-PCR from A549 lysates, with or without UV; protein in cells.

For the sequence CAAUUCUGCAGUAUCUACAA [Claspin ARE1Mut], the functional effect entry in data set [1] (luciferase reporter not induced by TTP overexpression, variant of Claspin mRNA 3'UTR ARE1 (wild type)) is reported as “not active”.
In data set [1] (luciferase reporter (psiCHECK2) decreased about 5-fold on TTP depletion, increased by TTP overexpression), “CAAUUCUGCAGUAUUUACAA [Claspin mRNA 3'UTR ARE1 (wild type)]” had a functional effect of 5 fold. Besides, in data set [2], the binding result was “binds”.
